{"source": "PubChem BioAssay AID1259267 (Sanger Institute, 2017)", "purpose": "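Which kinases and bowel-cancer genes GP5D cells need, with or without anchor drugs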 (primary screen)", "system": "human GP5D colorectal cancer cells", "knock-down reagent": "siRNA pool against human genes", "challenge": "anchor drugs at low dose: BYL719 1 µM, cetuximab 5 µg/ml, trametinib 10 nM, or DMSO vehicle", "measured": "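Mean replicate viability versus non-targeting pool, given as knock-down-alone robust z-score, DMSO fraction, and synergy with low-dose BYL719, cetuximab or trametinib (1 µM, 5 µg/ml, 10 nM)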", "direction": "robust z-score, knock-down alone and viability with DMSO: higher = more viable cells", "units": "viability with DMSO in fraction of control", "active means": "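a robust z-score below -3 for the knock-down by itself makes a gene active, i.e. essential alone; synergy scores are ignored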", "calls": "active = essential alone; inactive = not essential", "note": "The deposit covers 794 reagents; this is a random part of them. In the full data, 9 (1.1%) were called active. 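Viability capped at 1; calls reflect loss of viability from knock-down alone, not synergy with drugs.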 Further read-outs or replicates are left out here. No sequences are given here. Not stated in the record: the amount of reagent, the time to read-out."}
{"gene": "DGKH", "robust z-score, knock-down alone": 0.817, "viability with DMSO": 1, "outcome": "inactive"}
{"gene": "SIK1", "robust z-score, knock-down alone": -1.71, "viability with DMSO": 0.464, "outcome": "inactive"}
{"gene": "EPHA8", "robust z-score, knock-down alone": 0.817, "viability with DMSO": 1, "outcome": "inactive"}
{"gene": "TAF1L", "robust z-score, knock-down alone": 0.817, "viability with DMSO": 1, "outcome": "inactive"}
{"gene": "CDC7", "robust z-score, knock-down alone": 0.817, "viability with DMSO": 1, "outcome": "inactive"}
{"gene": "NME2", "robust z-score, knock-down alone": -0.394, "viability with DMSO": 0.743, "outcome": "inactive"}
{"gene": "CREBBP", "robust z-score, knock-down alone": 0.35, "viability with DMSO": 0.901, "outcome": "inactive"}
{"gene": "UCK1", "robust z-score, knock-down alone": 0.725, "viability with DMSO": 0.981, "outcome": "inactive"}
{"gene": "CIB2", "robust z-score, knock-down alone": -1.84, "viability with DMSO": 0.437, "outcome": "inactive"}
{"gene": "NUP98", "robust z-score, knock-down alone": -3.16, "viability with DMSO": 0.158, "outcome": "active"}
{"gene": "SMG1", "robust z-score, knock-down alone": -2.25, "viability with DMSO": 0.351, "outcome": "inactive"}
{"gene": "PTK7", "robust z-score, knock-down alone": -0.934, "viability with DMSO": 0.629, "outcome": "inactive"}

2 of these entries, set out differently:
gene	robust z-score, knock-down alone	viability with DMSO	outcome
EPHA8	0.817	1	inactive
TAF1L	0.817	1	inactive
